This is one part of the list.
Compound: Cc1cc(ccc1-c1ccccc1)C(=O)N1CCCN(CC1)C(=O)CCl [compound 10]
Assay: probe-labelled cysteine peptide fold change vs DMSO (competition) (log2 fold change); higher = less target engagement (more negative = stronger competition)
Conditions: THP-1, incubation time: 4 h
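Also: competitive profiling in live THP-1 cells: cysteine peptides tagged with an iodoacetamide desthiobiotin (IA-DTB) probe, intensity after compound treatment relative to DMSO-treated cells.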

Amino acid sequences for entries named in this document (tags omitted). A change or cut given only in a name is not applied to a line headed by its entry.
UniProt Q13111, whole entry, looked up: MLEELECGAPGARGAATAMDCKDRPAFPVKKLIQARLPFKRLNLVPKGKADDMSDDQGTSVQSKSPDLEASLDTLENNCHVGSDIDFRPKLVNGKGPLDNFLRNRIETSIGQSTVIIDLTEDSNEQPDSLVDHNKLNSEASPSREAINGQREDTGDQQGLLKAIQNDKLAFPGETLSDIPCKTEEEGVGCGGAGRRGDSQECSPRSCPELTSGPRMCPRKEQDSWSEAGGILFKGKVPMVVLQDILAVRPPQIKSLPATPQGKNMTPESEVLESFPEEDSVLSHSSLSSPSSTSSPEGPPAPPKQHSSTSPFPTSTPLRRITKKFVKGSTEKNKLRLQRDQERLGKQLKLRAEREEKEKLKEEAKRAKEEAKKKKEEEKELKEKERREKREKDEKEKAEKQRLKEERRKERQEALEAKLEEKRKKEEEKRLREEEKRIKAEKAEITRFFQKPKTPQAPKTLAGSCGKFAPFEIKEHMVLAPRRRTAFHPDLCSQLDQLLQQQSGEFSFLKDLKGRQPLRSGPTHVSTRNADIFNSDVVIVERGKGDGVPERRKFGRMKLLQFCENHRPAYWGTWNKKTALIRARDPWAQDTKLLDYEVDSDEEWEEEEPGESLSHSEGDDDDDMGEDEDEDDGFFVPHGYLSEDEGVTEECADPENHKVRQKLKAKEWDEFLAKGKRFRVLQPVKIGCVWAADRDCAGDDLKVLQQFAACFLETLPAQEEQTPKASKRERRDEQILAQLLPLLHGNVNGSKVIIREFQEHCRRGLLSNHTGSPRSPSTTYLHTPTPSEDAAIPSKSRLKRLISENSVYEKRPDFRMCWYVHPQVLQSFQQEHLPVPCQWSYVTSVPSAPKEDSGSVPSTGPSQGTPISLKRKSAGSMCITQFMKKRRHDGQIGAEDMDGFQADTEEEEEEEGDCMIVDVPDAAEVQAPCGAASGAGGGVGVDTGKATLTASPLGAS
UniProt O14578, whole entry, looked up: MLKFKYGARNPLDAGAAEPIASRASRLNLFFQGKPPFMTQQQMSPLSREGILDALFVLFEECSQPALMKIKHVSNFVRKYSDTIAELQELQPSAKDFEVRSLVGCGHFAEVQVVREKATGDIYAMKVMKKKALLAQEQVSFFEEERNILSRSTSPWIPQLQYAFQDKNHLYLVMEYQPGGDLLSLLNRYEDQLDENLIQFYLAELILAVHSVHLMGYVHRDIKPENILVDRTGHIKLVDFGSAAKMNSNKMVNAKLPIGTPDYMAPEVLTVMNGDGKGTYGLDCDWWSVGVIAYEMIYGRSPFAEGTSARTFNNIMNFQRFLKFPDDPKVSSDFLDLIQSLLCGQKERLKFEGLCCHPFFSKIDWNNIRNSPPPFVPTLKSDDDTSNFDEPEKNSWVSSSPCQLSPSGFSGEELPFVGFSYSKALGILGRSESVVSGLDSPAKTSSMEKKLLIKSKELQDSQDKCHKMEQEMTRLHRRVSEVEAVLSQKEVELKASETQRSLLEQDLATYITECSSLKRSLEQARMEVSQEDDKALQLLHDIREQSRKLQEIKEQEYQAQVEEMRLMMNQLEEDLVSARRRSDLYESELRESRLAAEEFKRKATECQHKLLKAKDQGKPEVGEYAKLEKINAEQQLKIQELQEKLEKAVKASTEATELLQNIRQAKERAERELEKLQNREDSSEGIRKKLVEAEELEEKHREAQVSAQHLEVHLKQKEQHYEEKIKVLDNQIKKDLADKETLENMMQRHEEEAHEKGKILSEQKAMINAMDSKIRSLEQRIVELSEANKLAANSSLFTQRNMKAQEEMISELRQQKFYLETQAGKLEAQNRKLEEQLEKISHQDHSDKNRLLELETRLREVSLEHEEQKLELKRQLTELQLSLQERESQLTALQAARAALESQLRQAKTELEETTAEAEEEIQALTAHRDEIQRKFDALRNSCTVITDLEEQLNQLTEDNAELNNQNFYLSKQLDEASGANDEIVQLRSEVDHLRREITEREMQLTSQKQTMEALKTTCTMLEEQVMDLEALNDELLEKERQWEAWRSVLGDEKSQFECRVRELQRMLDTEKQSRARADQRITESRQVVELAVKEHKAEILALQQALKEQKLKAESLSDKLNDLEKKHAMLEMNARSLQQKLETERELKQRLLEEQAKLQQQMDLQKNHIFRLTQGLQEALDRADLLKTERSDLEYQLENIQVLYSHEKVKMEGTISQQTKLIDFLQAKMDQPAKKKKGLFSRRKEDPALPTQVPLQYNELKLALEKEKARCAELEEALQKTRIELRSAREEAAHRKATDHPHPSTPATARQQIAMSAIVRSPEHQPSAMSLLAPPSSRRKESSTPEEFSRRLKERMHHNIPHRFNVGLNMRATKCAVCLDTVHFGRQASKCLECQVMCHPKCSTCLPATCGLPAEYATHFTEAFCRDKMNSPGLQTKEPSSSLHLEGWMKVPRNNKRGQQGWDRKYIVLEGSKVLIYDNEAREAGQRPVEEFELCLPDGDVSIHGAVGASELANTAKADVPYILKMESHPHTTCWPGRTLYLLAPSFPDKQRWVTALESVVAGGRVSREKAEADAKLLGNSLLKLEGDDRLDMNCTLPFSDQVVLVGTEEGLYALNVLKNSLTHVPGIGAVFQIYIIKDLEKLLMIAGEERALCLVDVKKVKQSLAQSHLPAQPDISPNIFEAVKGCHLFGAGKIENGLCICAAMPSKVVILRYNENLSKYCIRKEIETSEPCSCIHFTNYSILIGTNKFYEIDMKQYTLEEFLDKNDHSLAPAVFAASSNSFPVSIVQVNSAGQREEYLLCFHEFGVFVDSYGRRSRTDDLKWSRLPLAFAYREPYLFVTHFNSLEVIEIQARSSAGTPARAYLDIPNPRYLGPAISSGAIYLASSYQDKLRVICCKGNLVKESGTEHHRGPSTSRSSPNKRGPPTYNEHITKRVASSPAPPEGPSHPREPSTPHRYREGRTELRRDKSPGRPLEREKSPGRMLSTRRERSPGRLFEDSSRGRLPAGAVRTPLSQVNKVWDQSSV
UniProt Q9H078: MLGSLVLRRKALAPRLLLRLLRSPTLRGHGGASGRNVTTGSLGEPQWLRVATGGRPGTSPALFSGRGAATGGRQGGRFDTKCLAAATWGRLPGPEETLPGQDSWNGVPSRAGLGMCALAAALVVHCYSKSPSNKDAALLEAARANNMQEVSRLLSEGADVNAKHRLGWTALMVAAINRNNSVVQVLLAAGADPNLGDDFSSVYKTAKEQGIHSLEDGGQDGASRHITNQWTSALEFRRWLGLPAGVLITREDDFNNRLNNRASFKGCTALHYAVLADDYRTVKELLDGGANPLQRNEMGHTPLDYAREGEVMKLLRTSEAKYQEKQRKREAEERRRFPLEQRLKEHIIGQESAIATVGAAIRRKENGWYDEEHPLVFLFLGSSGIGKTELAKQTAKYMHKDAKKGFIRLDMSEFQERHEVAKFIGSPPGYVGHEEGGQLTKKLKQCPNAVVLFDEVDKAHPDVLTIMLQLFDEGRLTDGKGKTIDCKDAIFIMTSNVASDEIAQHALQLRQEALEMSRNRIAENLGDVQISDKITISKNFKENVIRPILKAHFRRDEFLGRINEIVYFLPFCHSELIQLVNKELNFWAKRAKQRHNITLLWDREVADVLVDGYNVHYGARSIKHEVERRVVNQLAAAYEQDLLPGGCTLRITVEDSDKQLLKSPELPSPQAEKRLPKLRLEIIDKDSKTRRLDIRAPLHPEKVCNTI
UniProt Q9Y259: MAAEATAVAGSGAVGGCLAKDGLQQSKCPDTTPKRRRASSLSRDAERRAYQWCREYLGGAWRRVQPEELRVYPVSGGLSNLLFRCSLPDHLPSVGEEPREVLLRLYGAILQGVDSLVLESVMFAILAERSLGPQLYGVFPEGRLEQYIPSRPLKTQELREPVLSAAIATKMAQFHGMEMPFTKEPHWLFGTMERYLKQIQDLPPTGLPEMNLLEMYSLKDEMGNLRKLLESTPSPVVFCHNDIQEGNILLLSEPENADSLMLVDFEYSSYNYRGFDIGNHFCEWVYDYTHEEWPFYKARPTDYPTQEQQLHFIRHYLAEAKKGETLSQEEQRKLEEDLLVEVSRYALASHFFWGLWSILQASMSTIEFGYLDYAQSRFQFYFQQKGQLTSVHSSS
UniProt P24386: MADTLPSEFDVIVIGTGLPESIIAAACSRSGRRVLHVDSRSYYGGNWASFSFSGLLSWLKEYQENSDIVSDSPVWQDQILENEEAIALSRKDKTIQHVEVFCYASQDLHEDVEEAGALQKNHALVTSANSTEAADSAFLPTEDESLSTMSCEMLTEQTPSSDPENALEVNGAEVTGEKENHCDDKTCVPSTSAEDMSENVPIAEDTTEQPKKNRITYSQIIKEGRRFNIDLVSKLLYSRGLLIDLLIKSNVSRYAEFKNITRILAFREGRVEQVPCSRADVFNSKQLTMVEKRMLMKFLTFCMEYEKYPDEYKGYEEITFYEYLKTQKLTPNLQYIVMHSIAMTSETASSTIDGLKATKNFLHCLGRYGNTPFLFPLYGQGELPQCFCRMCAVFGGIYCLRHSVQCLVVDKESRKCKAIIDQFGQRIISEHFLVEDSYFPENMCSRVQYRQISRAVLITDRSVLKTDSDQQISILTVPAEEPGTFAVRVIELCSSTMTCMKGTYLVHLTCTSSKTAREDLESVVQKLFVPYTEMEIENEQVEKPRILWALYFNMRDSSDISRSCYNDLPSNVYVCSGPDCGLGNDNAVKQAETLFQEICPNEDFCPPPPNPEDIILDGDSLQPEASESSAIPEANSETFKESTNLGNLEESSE
UniProt O14646: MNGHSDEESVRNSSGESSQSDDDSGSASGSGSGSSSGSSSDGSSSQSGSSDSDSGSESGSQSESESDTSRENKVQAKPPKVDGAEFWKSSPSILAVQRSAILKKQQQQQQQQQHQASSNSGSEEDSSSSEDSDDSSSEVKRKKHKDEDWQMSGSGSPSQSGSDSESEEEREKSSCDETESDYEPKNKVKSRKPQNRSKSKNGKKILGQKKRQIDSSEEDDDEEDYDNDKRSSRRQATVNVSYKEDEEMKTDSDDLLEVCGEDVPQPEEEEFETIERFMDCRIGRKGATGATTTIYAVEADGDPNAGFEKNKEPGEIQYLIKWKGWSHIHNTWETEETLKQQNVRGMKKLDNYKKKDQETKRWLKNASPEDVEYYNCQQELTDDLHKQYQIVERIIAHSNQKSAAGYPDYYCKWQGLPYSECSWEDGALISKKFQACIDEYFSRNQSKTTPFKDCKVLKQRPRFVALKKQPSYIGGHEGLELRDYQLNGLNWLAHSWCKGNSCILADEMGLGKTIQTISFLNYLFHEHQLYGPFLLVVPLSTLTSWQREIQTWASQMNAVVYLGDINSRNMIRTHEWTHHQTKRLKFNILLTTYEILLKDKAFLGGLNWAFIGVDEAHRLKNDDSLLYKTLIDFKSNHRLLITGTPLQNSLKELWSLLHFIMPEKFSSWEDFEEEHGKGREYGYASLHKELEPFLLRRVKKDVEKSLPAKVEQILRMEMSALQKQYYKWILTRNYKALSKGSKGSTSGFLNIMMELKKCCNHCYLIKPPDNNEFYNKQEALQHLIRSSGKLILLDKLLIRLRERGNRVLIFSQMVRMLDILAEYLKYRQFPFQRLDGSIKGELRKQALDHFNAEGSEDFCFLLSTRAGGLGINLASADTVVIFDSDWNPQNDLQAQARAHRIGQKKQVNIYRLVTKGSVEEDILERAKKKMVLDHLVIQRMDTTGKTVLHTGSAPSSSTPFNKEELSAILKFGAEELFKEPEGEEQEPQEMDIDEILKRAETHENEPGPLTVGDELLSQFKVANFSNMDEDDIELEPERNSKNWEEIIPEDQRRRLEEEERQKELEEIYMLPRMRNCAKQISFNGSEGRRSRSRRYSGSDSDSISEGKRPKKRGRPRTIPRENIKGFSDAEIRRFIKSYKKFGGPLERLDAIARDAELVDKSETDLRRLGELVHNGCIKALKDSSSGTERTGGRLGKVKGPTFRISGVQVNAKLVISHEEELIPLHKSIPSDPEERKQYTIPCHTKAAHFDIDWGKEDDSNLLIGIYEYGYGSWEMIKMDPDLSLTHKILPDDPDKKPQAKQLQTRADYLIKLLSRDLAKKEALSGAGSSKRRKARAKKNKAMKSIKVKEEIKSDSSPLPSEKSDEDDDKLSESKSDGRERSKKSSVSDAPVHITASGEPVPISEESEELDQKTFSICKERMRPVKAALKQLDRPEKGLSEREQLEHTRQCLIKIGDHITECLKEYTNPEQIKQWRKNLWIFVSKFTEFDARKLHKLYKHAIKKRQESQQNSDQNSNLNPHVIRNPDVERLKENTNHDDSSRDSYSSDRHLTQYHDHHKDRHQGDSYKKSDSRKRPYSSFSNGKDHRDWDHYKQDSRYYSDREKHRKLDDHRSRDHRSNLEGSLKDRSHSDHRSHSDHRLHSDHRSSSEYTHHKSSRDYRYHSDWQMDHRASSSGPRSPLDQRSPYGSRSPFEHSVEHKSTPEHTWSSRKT
UniProt Q8WUH1: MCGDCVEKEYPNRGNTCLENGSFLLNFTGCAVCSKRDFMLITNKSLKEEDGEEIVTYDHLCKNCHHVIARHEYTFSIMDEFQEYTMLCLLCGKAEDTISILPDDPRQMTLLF

Target | probe-labelled cysteine peptide fold change (10 µM) | probe-labelled cysteine peptide fold change (50 µM)
CKAP5_Q14008_1019+1026_STPTDLILCVPHLYSCLEDR (UniProt Q14008) | 0.223 | 0.335
CHAF1A_Q13111_878_SAGSMCITQFMK (UniProt Q13111) | -0.385 | -0.565
CIT_O14578_1655_ALCLVDVK (UniProt O14578) | 0.383 | 0.309
CHTF18_Q8WVB6_825_LEPNVEELCR (UniProt Q8WVB6) | -0.2 | 0.191
CLIC1_O00299_59_LCPGGQLPFLLYGTEVHTDTNK (UniProt O00299) | 0.0472 | 0.477
CHERP_Q8IWX8_246_VVVPIYCTSFLAVEEDK (UniProt Q8IWX8) | 0.0369 | 0.0109
CLTC_Q00610_39_FQEHLQLQNLGINPANIGFSTLTMESDKFICIR (UniProt Q00610) | -0.282 | -0.594
CIR1_Q86X95_10_SFANFMCK (UniProt Q86X95) | 0.235 | -0.0587
CHORDC1_Q9UHD1_86_ELCELKPK (UniProt Q9UHD1) | -0.237 | -0.482
CHD2_O14647_500_DYQLEGLNWLAHSWCK (UniProt O14647) | 0.186 | 0.216
CGGBP1_Q9UFW8_43+46_LFCTSCNVVLNHVR (UniProt Q9UFW8) | 0.208 | 0.185
CHCHD3_Q9NX63_183_RYESHPVCADLQAK (UniProt Q9NX63) | -0.372 | -0.179
CLPB_Q9H078_446_QCPNAVVLFDEVDK (UniProt Q9H078) | -0.263 | 0.128
CKAP5_Q14008_1360_AECLEELGCLVESYGMNVCQPTPGK (UniProt Q14008) | 0.0457 | 0.344
CLUH_O75153_551_HQVLNDRDEEVELCSSVECK (UniProt O75153) | -0.0412 | -0.0308
CHKB_Q9Y259_28_CPDTTPK (UniProt Q9Y259) | -0.308 | -0.309
CHST11_Q9NPF2_89_RDQVTDTCR (UniProt Q9NPF2) | -0.188 | -0.00933
CHM_P24386_364_NFLHCLGR (UniProt P24386) | 0.0386 | 0.278
CHPF2_Q9P2E5_223_YCHGGFGYLLSR (UniProt Q9P2E5) | -0.231 | 0.173
CHKB_Q9Y259_17_AAEATAVAGSGAVGGCLAK (UniProt Q9Y259) | -0.32 | -0.523
CHD1_O14646_502_GNSCILADEMGLGK (UniProt O14646) | 0.109 | 0.134
CISD2_Q8N5K1_110_TFPACDGSHNK (UniProt Q8N5K1) | -0.176 | -0.321

Target | probe-labelled cysteine peptide fold change (10 µM) | probe-labelled cysteine peptide fold change (50 µM)
CHAF1A_Q13111_7_MLEELECGAPGAR (UniProt Q13111) | 0.183 | 0.0367
CHST14_Q8NCH0_159_VACSNWK (UniProt Q8NCH0) | -0.23 | -0.087
CFL1_P23528_80_MLPDKDCR (UniProt P23528) | -0.408 | -0.881
CHAMP1_Q96JM3_770_CNFESNFPR (UniProt Q96JM3) | 0.0281 | -0.498
CLPB_Q9H078_647_VVNQLAAAYEQDLLPGGCTLR (UniProt Q9H078) | 0.223 | 0.42
CHORDC1_Q9UHD1_176_TYQGLESLEEVCVYHSGVPIFHEGMK (UniProt Q9UHD1) | 0.0745 | 0.0343
CHURC1_Q8WUH1_88_SLKEEDGEEIVTYDHLCK (UniProt Q8WUH1) | 0.0647 | -0.373
CHCHD3_Q9NX63_112_ERICSEEER (UniProt Q9NX63) | -0.207 | -0.458
CIAO2B_Q9Y3D0_158_VAAALENTHLLEVVNQCLSAR (UniProt Q9Y3D0) | -0.0331 | -0.264
CIAO1_O76071_308_VFQEDPNSDPQQPTFSLTAHLHQAHSQDVNCVAWNPK (UniProt O76071) | 0.1 | 0.0187
CHD1_O14646_497_DYQLNGLNWLAHSWCK (UniProt O14646) | 0.00729 | 0.0426
CHAF1A_Q13111_710_VLQQFAACFLETLPAQEEQTPK (UniProt Q13111) | 0.175 | 0.0656
CHURC1_Q8WUH1_44+60_GNTCLENGSFLLNFTGCAVCSK (UniProt Q8WUH1) | 0.251 | 0.227
CIAO1_O76071_19_CWFLAWNPAGTLLASCGGDRR (UniProt O76071) | -0.472 | -0.0889
CLTC_Q00610_436_YESLELCR (UniProt Q00610) | 0.0128 | 0.398
CLNS1A_P54105_73_DRSDCLGEHLYVMVNAK (UniProt P54105) | -0.0404 | -0.327
CKAP5_Q14008_1500_CEMPELVQHK (UniProt Q14008) | -0.307 | -0.104
CLASP2_O75122_157_EACITVAHLSTVLGNK (UniProt O75122) | 0.29 | 0.404
CFL1_P23528_39_AVLFCLSEDKK (UniProt P23528) | -0.0528 | -0.132
CHM_P24386_406_HSVQCLVVDK (UniProt P24386) | -0.111 | 0.143
CHML_P26374_366_NFLQCLGR (UniProt P26374) | 0.116 | 0.142
CLIC4_Q9Y696_189_FLDGNEMTLADCNLLPK (UniProt Q9Y696) | -0.0734 | -0.181

Target | probe-labelled cysteine peptide fold change (10 µM) | probe-labelled cysteine peptide fold change (50 µM)
CISD3_P0C7P0_98_MVALCTCK (UniProt P0C7P0) | -0.00922 | -0.156
CLIP1_P30622_265_YFQCQPK (UniProt P30622) | 0.0956 | 0.0426
CHMP5_Q9NZZ3_20_APPPSLTDCIGTVDSR (UniProt Q9NZZ3) | -0.0163 | -0.364
CLTC_Q00610_934_GQCDLELINVCNENSLFK (UniProt Q00610) | 0.138 | 0.156
CLUH_O75153_1196_CLTQQAVALQR (UniProt O75153) | -0.181 | -0.0272
CHAF1A_Q13111_761_EFQEHCR (UniProt Q13111) | 0.146 | 0.109
CLEC16A_Q2KHT3_566_LATLELSCLLLK (UniProt Q2KHT3) | 0.269 | 0.318
CFL1_P23528_147_CTLAEK (UniProt P23528) | -0.206 | -0.169
CHAMP1_Q96JM3_592_CDILVQEELLASPK (UniProt Q96JM3) | -0.173 | -0.0899
CHD9_Q3L8U1_1375_FCEEDIDQILLR (UniProt Q3L8U1) | 0.149 | 0.222
CKB_P12277_254_FCTGLTQIETLFK (UniProt P12277) | 0.0607 | 0.0404
CLP1_Q92989_311_GCFYPHAFNVK (UniProt Q92989) | 0.0944 | 0.2
CHKB_Q9Y259_282_GFDIGNHFCEWVYDYTHEEWPFYK (UniProt Q9Y259) | 0.214 | 0.198
CHCHD3_Q9NX63_112_ICSEEER (UniProt Q9NX63) | -0.514 | -0.112
CHD8_Q9HCK8_2300_LVELEVECMEEPNHLDVDLETR (UniProt Q9HCK8) | -0.286 | -0.239
CHAF1A_Q13111_465_TLAGSCGK (UniProt Q13111) | -0.182 | -0.674
CHD1L_Q86WJ1_156_FHVLLTTYEICLK (UniProt Q86WJ1) | 0.0398 | 0.295
CHML_P26374_103_KKDETIQHTEAFCYASQDMEDNVEEIGALQK (UniProt P26374) | -0.181 | -0.343
CISD2_Q8N5K1_92_VVNEINIEDLCLTK (UniProt Q8N5K1) | -0.127 | -0.666
CLP1_Q92989_338_VGAPTIPDSCLPLGMSQEDNQLK (UniProt Q92989) | -0.417 | -0.0353
CIAPIN1_Q6FI81_237_AASCGEGK (UniProt Q6FI81) | -0.202 | -0.685
CHAF1B_Q13112_283_RPIAHLPCPGK (UniProt Q13112) | 0.00463 | -0.0866

Target | probe-labelled cysteine peptide fold change (10 µM) | probe-labelled cysteine peptide fold change (50 µM)
CHD2_O14647_500_KQPAYLGGENLELRDYQLEGLNWLAHSWCK (UniProt O14647) | -0.019 | -0.189
CHD4_Q14839_1018+1019_CCNHPYLFPVAAMEAPK (UniProt Q14839) | -0.0328 | -0.421
CHD6_Q8TD26_172_SCTDSAAR (UniProt Q8TD26) | 0.0434 | -0.12
CHI3L1_P36222_41_EGDGSCFPDALDR (UniProt P36222) | -0.177 | -0.289
CLIC1_O00299_89_IEEFLEAVLCPPRYPK (UniProt O00299) | 0.24 | 0.312
CIAO1_O76071_19+34_CWFLAWNPAGTLLASCGGDR (UniProt O76071) | 0.181 | -0.482
CISD3_P0C7P0_100_MVALCTCK (UniProt P0C7P0) | 0.0463 | -0.0222
CIT_O14578_1655_ALCLVDVKK (UniProt O14578) | 0.137 | -0.115
CLTC_Q00610_436_YESLELCRPVLQQGR (UniProt Q00610) | 0.0476 | 0.249
CIP2A_Q8TCG1_358_WLSQPLDGSENCSVLALELFK (UniProt Q8TCG1) | 0.443 | -0.951
CHEK1_O14757_48_AVDCPENIK (UniProt O14757) | -0.255 | 0.47
CIP2A_Q8TCG1_615_DQICDVR (UniProt Q8TCG1) | -0.273 | -0.704
CHFR_Q96EP1_95_KQTCPLQTGDVIYLVYR (UniProt Q96EP1) | -0.0947 | -0.633
CHPF_Q8IZ52_243_YCHGGFGVLLSR (UniProt Q8IZ52) | -0.176 | 0.255
CLTC_Q00610_824_VNPSRLPVVIGGLLDVDCSEDVIK (UniProt Q00610) | 0.122 | 0.208
CIAPIN1_Q6FI81_285_CASCPYLGMPAFKPGEK (UniProt Q6FI81) | -0.0926 | -0.626
CHD4_Q14839_1594_STAPETAIECTQAPAPASEDEK (UniProt Q14839) | 0.0259 | -0.219
CLPB_Q9H078_267_GCTALHYAVLADDYR (UniProt Q9H078) | 0.0157 | 0.0121
CLTC_Q00610_753_ESNCYDPER (UniProt Q00610) | -0.0895 | -0.0135
CLUH_O75153_588_TFPPDLNFLPVPGEELPEECAR (UniProt O75153) | 0.173 | 0.292
